Measured values as given in patent US8119660B2, “Small-molecule inhibitors of the androgen receptor” (The Regents of the University of California, priority 2007, dated 2012).

Test system: mice

`Cc1cc(/C=C/c2ccc3cc(N(C)C)ccc3[n+]2C)c(C)n1-c1ccccc1` [PP, pyrvinium pamoate] gave a Toxic dose (mice, doses from 0.1 to 10 mg/kg tested) of 10 mg/kg and a Tolerated dose (mouse, in vivo) of 5 mg/kg.
